# Data: the supplement of paper PMC10849652
# The chains behind the UniProt entries cited, without tags or fusion partners. Where a name states a change or a piece, a line headed by the entry shows the natural chain unless it says otherwise.
# UniProt Q7Z7K6: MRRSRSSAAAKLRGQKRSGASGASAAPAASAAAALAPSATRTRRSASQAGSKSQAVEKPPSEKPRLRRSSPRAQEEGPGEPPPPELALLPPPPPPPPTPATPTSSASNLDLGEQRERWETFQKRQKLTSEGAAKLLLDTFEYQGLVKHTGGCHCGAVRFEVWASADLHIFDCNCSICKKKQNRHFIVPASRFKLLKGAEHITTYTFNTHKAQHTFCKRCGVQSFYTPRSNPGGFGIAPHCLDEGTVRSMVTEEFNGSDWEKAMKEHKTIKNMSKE
# UniProt Q9HCU4: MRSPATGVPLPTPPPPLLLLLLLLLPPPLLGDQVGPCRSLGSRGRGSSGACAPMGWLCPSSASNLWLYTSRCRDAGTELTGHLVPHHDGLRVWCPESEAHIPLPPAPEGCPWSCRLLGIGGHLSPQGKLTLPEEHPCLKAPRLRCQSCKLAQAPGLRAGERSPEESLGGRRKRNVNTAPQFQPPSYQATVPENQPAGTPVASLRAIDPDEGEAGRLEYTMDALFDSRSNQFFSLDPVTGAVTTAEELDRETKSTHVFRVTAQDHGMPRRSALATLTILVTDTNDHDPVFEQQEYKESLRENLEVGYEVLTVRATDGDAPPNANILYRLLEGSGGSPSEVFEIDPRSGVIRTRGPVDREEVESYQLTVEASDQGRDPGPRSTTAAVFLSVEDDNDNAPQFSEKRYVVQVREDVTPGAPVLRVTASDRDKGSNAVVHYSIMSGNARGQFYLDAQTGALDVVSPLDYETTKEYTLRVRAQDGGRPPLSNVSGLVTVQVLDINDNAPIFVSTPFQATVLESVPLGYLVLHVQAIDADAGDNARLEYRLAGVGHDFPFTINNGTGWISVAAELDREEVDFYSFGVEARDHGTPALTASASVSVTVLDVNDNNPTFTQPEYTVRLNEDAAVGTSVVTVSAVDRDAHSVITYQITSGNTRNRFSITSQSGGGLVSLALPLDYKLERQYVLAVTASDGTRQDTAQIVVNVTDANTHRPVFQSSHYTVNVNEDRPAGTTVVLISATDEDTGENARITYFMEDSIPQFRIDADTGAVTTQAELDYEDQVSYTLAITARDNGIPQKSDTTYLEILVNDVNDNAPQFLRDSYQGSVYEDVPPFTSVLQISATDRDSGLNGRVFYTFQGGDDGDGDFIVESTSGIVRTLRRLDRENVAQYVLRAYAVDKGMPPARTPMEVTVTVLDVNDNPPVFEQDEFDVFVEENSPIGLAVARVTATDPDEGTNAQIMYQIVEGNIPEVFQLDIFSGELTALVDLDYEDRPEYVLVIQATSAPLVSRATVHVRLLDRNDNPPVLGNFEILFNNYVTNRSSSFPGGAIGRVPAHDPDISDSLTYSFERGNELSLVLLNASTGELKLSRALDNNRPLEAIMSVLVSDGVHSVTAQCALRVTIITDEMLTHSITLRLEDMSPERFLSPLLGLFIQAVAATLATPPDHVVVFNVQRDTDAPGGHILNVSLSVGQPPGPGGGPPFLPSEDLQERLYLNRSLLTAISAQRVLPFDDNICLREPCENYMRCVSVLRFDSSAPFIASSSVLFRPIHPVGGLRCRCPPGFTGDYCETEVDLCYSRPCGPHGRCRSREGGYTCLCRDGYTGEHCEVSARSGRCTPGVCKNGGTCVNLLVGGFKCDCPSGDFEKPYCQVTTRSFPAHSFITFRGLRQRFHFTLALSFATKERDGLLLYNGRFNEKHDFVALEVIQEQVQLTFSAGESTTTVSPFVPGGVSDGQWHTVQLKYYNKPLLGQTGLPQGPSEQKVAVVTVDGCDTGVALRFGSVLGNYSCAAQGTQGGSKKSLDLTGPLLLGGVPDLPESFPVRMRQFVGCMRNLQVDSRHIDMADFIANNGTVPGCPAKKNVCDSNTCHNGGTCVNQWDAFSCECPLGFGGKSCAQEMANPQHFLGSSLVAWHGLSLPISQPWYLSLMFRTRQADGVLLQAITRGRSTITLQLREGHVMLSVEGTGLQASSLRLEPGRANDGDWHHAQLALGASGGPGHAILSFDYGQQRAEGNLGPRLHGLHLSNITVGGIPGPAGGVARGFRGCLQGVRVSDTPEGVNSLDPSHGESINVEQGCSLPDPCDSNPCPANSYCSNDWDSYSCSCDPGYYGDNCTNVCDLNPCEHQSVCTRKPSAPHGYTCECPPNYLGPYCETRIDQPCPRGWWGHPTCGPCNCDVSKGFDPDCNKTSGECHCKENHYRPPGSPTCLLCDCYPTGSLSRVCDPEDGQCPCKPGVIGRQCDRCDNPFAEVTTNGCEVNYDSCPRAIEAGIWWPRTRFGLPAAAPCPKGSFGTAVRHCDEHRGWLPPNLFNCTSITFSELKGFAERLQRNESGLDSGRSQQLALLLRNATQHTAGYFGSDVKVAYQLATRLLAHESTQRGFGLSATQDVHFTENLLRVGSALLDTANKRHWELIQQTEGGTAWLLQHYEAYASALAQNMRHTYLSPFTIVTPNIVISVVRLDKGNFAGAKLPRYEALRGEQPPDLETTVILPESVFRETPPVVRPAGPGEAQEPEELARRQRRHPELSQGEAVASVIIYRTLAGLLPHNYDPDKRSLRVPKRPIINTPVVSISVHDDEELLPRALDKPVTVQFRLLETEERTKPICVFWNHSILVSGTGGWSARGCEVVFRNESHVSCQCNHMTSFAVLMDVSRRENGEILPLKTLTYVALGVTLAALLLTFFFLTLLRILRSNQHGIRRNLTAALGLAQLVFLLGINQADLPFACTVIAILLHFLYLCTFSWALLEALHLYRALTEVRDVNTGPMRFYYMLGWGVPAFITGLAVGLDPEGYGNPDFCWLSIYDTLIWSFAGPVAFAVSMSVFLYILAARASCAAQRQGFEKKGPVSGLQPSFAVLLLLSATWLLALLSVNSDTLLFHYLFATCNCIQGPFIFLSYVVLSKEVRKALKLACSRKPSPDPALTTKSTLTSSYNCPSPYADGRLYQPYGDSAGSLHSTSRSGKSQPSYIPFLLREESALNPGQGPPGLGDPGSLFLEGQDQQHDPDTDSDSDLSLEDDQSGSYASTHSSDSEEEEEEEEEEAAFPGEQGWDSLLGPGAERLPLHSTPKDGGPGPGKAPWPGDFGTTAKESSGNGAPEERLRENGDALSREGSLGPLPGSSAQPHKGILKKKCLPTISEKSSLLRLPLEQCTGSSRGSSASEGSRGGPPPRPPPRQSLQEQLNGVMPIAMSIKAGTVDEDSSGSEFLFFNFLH
# UniProt A8MTT3: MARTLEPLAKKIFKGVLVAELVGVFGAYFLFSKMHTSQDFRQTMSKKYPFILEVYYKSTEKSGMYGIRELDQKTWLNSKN
# UniProt O75419: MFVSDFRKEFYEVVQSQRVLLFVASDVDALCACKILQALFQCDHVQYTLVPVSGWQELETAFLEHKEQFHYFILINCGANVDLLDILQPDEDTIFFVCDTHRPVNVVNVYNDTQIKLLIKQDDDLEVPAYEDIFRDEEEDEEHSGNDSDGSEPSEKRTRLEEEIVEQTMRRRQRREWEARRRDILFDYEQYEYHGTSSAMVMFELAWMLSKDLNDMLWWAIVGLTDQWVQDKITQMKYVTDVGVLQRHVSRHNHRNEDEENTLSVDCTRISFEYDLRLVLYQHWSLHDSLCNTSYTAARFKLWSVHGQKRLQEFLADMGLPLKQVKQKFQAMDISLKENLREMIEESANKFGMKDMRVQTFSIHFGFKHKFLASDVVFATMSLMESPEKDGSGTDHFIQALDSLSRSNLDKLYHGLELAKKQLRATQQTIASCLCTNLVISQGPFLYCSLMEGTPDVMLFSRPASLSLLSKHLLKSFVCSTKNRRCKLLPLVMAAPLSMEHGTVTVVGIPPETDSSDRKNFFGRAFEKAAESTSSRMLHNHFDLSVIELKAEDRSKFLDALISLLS
# UniProt Q9BSY4: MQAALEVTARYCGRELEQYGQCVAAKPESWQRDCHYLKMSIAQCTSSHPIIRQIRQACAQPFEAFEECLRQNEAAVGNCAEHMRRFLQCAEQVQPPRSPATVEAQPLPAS
# UniProt Q96SN8: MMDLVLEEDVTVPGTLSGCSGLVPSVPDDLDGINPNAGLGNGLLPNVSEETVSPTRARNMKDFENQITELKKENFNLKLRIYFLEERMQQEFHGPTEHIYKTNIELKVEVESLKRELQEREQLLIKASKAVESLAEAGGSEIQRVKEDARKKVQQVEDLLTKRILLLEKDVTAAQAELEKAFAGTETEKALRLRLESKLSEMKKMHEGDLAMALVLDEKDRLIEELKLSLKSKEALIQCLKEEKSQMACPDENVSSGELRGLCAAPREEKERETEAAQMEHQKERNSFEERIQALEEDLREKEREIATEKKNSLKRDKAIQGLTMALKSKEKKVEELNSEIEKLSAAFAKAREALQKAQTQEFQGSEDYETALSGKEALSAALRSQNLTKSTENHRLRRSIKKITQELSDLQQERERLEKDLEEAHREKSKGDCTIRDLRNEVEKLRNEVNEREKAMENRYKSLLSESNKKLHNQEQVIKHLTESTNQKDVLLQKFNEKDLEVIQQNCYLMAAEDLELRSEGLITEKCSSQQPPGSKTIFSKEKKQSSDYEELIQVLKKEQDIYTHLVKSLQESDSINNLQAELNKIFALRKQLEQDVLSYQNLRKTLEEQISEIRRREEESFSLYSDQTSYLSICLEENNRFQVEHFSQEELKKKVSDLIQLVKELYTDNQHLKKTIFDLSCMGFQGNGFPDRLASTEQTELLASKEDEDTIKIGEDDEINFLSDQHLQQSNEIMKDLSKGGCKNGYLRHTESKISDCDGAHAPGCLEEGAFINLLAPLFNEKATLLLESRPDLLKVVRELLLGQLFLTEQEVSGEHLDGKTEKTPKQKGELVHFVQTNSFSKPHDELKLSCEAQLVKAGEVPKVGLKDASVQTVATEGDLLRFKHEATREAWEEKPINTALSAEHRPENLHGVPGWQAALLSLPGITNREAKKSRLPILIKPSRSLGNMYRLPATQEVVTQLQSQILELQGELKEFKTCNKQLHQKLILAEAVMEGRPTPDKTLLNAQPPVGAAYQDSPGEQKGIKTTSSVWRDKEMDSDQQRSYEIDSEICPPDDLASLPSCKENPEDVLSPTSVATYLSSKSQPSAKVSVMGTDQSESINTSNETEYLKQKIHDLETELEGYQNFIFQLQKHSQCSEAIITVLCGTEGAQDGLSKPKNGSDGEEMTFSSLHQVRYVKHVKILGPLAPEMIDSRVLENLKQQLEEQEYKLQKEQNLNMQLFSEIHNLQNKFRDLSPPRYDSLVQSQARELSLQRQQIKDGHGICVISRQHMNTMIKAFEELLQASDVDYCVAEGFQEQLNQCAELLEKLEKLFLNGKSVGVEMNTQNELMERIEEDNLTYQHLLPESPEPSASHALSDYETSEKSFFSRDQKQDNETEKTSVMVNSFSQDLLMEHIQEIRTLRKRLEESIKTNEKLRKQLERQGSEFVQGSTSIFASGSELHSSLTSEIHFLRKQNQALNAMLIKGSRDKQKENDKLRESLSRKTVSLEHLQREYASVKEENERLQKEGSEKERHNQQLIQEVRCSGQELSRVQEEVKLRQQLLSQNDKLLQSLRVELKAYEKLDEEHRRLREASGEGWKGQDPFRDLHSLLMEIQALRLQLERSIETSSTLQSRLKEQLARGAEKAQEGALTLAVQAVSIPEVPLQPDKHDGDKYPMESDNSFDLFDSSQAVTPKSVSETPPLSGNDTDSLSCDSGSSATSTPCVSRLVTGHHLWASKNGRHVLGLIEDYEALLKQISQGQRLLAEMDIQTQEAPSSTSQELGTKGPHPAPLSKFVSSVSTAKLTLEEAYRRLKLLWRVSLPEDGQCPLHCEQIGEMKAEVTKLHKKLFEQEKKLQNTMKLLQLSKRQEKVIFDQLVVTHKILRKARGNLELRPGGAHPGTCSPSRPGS
# UniProt O00311: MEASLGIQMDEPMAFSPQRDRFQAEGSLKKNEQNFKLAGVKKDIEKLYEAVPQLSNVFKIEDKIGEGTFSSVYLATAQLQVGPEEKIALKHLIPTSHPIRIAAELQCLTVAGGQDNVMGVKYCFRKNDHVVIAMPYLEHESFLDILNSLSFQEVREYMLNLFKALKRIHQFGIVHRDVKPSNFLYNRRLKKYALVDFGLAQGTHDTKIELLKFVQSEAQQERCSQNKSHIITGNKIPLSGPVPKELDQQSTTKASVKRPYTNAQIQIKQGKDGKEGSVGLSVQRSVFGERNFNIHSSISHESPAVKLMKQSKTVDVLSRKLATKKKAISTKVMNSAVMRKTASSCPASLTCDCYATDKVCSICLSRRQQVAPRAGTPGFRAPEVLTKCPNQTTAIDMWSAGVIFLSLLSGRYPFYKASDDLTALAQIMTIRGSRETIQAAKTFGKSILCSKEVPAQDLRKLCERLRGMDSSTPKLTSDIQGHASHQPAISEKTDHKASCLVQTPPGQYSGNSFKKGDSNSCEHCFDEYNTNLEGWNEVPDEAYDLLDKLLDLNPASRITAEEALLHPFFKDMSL
# UniProt Q8WYQ3: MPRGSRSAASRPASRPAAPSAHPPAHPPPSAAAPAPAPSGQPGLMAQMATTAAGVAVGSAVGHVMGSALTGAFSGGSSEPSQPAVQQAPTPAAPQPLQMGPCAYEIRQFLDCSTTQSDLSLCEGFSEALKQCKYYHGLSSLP
# Some of the results follow.
# What was measured:
# Experiment in all cases: log2 fold change, soluble protein after heating vs DMSO (PISA); higher = thermal stabilisation; K562 cells, 10 uM, 30 min; active = over 0.2 and 3.5 SD of the protein, either way, in both replicates (recomputed)
# [1] = compound: Cc1sc2c(c1C)C(c1ccc(Cl)cc1)=N[C@@H](CC(=O)OC(C)(C)C)c1nnc(C)n1-2
# Method in brief: (§1)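 Values are thermal stability changes relative to control samples and are taken from duplicates. They are stated as log2 fold changes. Before quantification by TMTpro 16plex LC-MS/MS with equalised channel sums, K562 cells at 2×10^6 cells/mL were treated with 10 μM compound for 30 min, heated in aliquots for 3 min across 48°C-58°C, pooled, extracted in PBS with 0.5% NP-40 at 4°C, and centrifuged at 21,000xg for 90 min to give the soluble supernatant.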
# [2] = compound: CC1=C2C(=CC=C1)N=C(N(C2=O)C3=CC=CC=C3C)CN4C=NC5=C(N=CN=C54)N
# Method in brief: as §1
# [3] = compound: CC1=C(SC2=C1C(=N[C@H](C3=NN=C(N32)C)CC(=O)N)C4=CC=C(C=C4)Cl)C
# Method in brief: as §1
# [4] = compound: c1ccc([C@@H]2C[C@H]2NC2CCNCC2)cc1
# Method in brief: as §1
# [5] = compound: C1=CC=C(C=C1)[C@H](COC2=CC3=C(C=C2)NC(=O)N3)NC(=O)C4=CC=CN(C4=O)CC5=CC(=C(C=C5)F)F
# Method in brief: as §1
Target,log2 fold change [1],log2 fold change [2],log2 fold change [3],log2 fold change [4],log2 fold change [5]
CENPU (UniProt Q71F23),inactive: 0.375,–,–,–,–
CEND1 (UniProt Q8N111),inactive: -0.026,–,–,–,–
CHFR (UniProt Q96EP1),inactive: 0.064,inactive: 0.097,–,–,–
CEP131 (UniProt Q9UPN4),inactive: 0.007,–,inactive: -0.048,inactive: -0.058,–
CENPC (UniProt Q03188),–,inactive: -0.111,inactive: -0.215,inactive: -0.1,–
CENPV (UniProt Q7Z7K6),–,–,inactive: -0.403,inactive: 0.199,–
CELSR2 (UniProt Q9HCU4),–,–,inactive: -0.016,inactive: 0.257,–
CEBPZOS (UniProt A8MTT3),inactive: -0.022,inactive: -0.105,–,–,inactive: -0.044
CDC5L (UniProt Q99459),inactive: -0.003,inactive: 0.131,inactive: -0.237,inactive: -0.014,–
CDC45 isoform 3 (UniProt O75419),inactive: 0.124,–,inactive: 0.018,inactive: 0.061,–
CFAP47 (UniProt Q6ZTR5),–,inactive: 0.173,–,–,inactive: 0.068
CEBPG (UniProt P53567),–,–,inactive: 0.272,inactive: -0.014,–
CHM (UniProt P24386),inactive: -0.15,inactive: -0.026,inactive: 0.032,inactive: -0.018,–
CDK19 (UniProt Q9BWU1),inactive: 0.021,inactive: 0.05,inactive: 0.035,inactive: 0.019,–
CDR2L (UniProt Q86X02),inactive: 0.066,inactive: 0.189,inactive: 0.052,inactive: 0.011,–
CEP97 isoform 2 (UniProt Q8IW35),inactive: -0.085,inactive: 0.071,inactive: -0.048,inactive: -0.042,–
CEP170B (UniProt Q9Y4F5),–,inactive: -0.148,–,–,inactive: 0.162
CHCHD5 (UniProt Q9BSY4),–,–,inactive: 0.148,inactive: -0.066,inactive: 0.026
CDCA2 (UniProt Q69YH5),inactive: -0.003,inactive: 0.05,inactive: 0.035,inactive: -0.077,–
CHMP2A (UniProt M0R1T5),inactive: -0.09,–,–,–,–
CDK5RAP2 (UniProt Q96SN8),inactive: 0.064,inactive: 0.036,–,–,inactive: 0.196
CHIC1 (UniProt Q5VXU3),inactive: -0.107,–,–,–,inactive: -0.054
CDC7 (UniProt O00311),–,inactive: -0.099,–,–,–
CEFIP (UniProt Q711Q0),–,inactive: 0.232,–,–,inactive: -0.096
CDNF (UniProt Q49AH0),–,inactive: -0.02,–,–,–
CHCHD10 (UniProt Q8WYQ3),–,inactive: -0.064,–,–,inactive: 0.048

# 2 records drawn at random from those above, as already listed:
Target,log2 fold change [1],log2 fold change [2],log2 fold change [3],log2 fold change [4],log2 fold change [5]
CEFIP (UniProt Q711Q0),–,inactive: 0.232,–,–,inactive: -0.096
CENPV (UniProt Q7Z7K6),–,–,inactive: -0.403,inactive: 0.199,–
